Results are given in words; binding and its absence hold for the method and conditions named. Some binding calls cover weakened binding; strength is not graded here.

The chains behind the UniProt entries cited, without tags or fusion partners.
UniProt P08413: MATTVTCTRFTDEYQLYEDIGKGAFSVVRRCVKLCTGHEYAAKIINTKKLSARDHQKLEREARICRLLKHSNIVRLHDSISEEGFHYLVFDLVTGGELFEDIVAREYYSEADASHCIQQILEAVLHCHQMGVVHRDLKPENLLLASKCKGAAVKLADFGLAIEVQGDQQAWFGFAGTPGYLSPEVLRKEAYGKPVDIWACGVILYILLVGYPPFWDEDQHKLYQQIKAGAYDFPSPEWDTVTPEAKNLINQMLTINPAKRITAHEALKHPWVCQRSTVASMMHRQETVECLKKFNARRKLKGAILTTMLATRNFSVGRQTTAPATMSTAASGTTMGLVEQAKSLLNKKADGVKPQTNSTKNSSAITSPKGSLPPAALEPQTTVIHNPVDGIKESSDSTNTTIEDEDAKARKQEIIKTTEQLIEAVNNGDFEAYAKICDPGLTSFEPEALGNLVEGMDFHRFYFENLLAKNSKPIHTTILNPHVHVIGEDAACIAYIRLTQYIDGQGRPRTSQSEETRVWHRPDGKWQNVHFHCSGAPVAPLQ

1 substance from paper PMC11540904 can be followed below.

This test concerns the target Green Camuiβ (UniProt P08413). In words: SEC; fluorescence-coupled SEC (FSEC): supernatant of sonicated transfected HEK293S GnTI- cells loaded directly onto Superose-6 in TBS (20 mM Tris-HCl pH 8.0, 200 mM NaCl), 0.4 ml/min; EGFP fluorescence 475/507 nm; approximate oligomeric state from retention time. For orientation: In gel filtration, larger molecules generally elute earlier.

As to “Green Camuiβ (from UniProt P08413 1-542) (enzyme)”, the binding entry is recorded as “binds”.
